Holding throughout (experiment): co-IP; endogenous proteins; IP antibody (anti-ERK5, anti-Gαq or anti-β-arrestin) or IgG isotype on protein A/G magnetic beads, 1 h at room temperature with lysates of CAFs with sa-NC or sa-OXTR; beads washed five times with lysis buffer; immunoblot
For orientation: A western blot detects proteins with antibodies after separation by electrophoresis.

Sequences of proteins named here, by UniProt entry; tags and fusion partners are left off.
UniProt Q13164: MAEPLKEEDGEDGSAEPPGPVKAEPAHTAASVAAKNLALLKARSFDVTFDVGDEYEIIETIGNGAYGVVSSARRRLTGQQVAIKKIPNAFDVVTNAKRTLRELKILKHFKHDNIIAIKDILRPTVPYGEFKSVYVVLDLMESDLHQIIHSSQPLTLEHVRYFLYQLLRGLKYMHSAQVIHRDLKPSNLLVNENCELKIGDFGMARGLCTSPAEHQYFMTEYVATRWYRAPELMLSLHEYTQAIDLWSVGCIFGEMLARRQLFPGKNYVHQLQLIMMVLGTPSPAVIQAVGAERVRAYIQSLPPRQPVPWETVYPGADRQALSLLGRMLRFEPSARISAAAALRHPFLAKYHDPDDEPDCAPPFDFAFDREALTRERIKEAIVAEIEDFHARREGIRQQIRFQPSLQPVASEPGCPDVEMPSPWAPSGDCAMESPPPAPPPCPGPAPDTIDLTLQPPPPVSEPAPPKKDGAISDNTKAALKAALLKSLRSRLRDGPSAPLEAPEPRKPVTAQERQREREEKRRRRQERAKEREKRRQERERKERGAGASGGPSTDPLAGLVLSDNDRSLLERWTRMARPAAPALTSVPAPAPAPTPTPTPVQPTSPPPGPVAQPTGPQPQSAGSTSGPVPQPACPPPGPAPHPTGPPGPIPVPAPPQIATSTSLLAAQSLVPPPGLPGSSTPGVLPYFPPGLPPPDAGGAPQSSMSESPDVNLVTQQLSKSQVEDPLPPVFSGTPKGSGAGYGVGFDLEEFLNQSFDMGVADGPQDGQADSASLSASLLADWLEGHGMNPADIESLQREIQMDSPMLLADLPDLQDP
UniProt P50148: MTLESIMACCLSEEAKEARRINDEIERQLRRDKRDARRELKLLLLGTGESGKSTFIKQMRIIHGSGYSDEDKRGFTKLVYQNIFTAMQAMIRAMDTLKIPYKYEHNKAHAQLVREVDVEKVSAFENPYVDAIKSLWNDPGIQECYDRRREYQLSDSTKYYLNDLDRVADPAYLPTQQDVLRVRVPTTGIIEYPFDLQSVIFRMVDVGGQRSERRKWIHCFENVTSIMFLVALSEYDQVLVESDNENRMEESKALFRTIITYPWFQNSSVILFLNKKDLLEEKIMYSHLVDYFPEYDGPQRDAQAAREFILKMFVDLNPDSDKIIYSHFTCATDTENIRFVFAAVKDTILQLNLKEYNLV
UniProt P01106: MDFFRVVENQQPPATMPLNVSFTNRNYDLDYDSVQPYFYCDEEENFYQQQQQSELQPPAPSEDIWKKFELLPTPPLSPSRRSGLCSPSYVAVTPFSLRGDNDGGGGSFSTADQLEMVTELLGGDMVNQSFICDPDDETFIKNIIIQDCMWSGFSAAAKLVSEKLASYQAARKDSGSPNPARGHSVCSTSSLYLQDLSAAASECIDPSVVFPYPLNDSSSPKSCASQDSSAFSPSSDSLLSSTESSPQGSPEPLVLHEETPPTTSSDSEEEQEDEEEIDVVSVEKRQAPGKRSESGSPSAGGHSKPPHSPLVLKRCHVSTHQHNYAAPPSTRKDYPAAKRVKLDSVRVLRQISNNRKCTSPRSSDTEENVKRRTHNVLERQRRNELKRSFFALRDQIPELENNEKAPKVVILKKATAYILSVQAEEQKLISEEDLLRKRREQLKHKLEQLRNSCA
UniProt P05412: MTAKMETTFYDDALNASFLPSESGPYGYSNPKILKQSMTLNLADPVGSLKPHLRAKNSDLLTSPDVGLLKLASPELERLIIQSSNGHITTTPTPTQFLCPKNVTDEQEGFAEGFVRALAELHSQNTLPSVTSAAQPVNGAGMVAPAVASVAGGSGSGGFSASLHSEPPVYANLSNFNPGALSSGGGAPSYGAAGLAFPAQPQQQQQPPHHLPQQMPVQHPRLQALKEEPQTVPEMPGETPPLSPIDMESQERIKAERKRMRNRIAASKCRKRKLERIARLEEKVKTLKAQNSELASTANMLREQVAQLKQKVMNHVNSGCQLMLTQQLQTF
UniProt Q06413: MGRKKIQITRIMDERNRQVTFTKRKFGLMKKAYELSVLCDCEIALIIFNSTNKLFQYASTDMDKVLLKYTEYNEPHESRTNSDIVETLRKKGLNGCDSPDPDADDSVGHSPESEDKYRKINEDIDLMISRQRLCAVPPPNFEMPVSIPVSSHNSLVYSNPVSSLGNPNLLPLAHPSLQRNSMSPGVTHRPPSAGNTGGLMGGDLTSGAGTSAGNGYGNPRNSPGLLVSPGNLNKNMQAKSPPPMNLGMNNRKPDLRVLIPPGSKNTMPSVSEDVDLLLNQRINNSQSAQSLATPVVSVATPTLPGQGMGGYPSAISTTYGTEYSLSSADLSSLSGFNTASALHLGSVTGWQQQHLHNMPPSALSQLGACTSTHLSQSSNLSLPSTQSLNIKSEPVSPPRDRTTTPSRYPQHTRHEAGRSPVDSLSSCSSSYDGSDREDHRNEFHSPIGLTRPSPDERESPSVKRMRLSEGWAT
UniProt P01100: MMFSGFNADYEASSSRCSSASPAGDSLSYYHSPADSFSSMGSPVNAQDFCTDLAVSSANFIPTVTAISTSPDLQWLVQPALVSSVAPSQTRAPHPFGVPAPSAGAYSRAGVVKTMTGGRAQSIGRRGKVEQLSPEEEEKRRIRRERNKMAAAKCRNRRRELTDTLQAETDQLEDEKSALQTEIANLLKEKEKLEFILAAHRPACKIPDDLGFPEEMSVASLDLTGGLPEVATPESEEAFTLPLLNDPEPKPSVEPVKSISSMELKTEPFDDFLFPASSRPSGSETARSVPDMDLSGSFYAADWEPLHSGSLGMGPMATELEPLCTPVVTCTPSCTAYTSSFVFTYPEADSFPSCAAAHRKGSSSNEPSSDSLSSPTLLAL

The target in test [1] is ERK5 (human (endogenous in OSCC patient-derived CAFs)) (UniProt Q13164).
In test [2] the target is Gαq (human (endogenous in OSCC patient-derived CAFs)) (UniProt P50148).
Test [3] addresses ERK5 (human (endogenous in OSCC patient-derived CAFs)) (UniProt Q13164). This is another data set of the same source.
The target of test [4] is Gαq (human (endogenous in OSCC patient-derived CAFs)) (UniProt P50148). The source holds these as a separate data set.

Where two headings read alike, the source gives them in different places. No constants are given. Whether binding was seen depends on the method and setting. In cells and extracts the contact can be indirect. Some binding calls cover weakened binding; strength is not graded here.

In PMC9433374 one finds binding data, which are given here for eight molecules.

On to c-myc (from UniProt P01106 1-454), for which, in test [1], the binding entry is “binds”.
For the molecule “ERK5 (from UniProt Q13164 1-816) (enzyme)”, in test [2], the binding result is reported as “binds”.
For c-jun (from UniProt P05412 1-331), the binding entry in test [1] is listed as “binds”.
As for MEF2C (from UniProt Q06413 1-473), the binding entry in test [1] is on record as “binds”.
The same measure, in the same setting: the value for c-fos (from UniProt P01100 1-380) was “binds”.

B1: CDC37 (protein, UniProt Q16543 1-378)
chain: MVDYSVWDHIEVSDDEDETHPNIDTASLFRWRHQARVERMEQFQKEKEELDRGCRECKRKVAECQRKLKELEVAEGGKAELERLQAEAQQLRKEERSWEQKLEEMRKKEKSMPWNVDTLSKDGFSKSMVNTKPEKTEEDSEEVREQKHKTFVEKYEKQIKHFGMLRRWDDSQKYLSDNVHLVCEETANYLVIWCIDLEVEEKCALMEQVAHQTIVMQFILELAKSLKVDPRACFRQFFTKIKTADRQYMEGFNDELEAFKERVRGRAKLRIEKAMKEYEEEERKKRLGPGGLDPVEVYESLPEELQKCFDVKDVQMLQDAISKMDPTDAKYHMQRCIDSGLWVPNSKASEAKEGEEAGPGDPLLEAVPKTGDEKDVSV
On to B1, for which the binding result in test [3] is “binds”.

B2: protein kinase C (PKC)ζ (enzyme, UniProt Q05513 1-592)
chain: MPSRTGPKMEGSGGRVRLKAHYGGDIFITSVDAATTFEELCEEVRDMCRLHQQHPLTLKWVDSEGDPCTVSSQMELEEAFRLARQCRDEGLIIHVFPSTPEQPGLPCPGEDKSIYRRGARRWRKLYRANGHLFQAKRFNRRAYCGQCSERIWGLARQGYRCINCKLLVHKRCHGLVPLTCRKHMDSVMPSQEPPVDDKNEDADLPSEETDGIAYISSSRKHDSIKDDSEDLKPVIDGMDGIKISQGLGLQDFDLIRVIGRGSYAKVLLVRLKKNDQIYAMKVVKKELVHDDEDIDWVQTEKHVFEQASSNPFLVGLHSCFQTTSRLFLVIEYVNGGDLMFHMQRQRKLPEEHARFYAAEICIALNFLHERGIIYRDLKLDNVLLDADGHIKLTDYGMCKEGLGPGDTTSTFCGTPNYIAPEILRGEEYGFSVDWWALGVLMFEMMAGRSPFDIITDNPDMNTEDYLFQVILEKPIRIPRFLSVKASHVLKGFLNKDPKERLGCRPQTGFSDIKSHAFFRSIDWDLLEKKQALPPFQPQITDDYGLDNFDTQFTSEPVQLTPDDEDAIKRIDQSEFEGFEYINPLLLSTEESV
B2: in test [4], the binding entry was “binds”.

B3: MEK5 (enzyme, UniProt Q13163 1-448)
chain: MLWLALGPFPAMENQVLVIRIKIPNSGAVDWTVHSGPQLLFRDVLDVIGQVLPEATTTAFEYEDEDGDRITVRSDEEMKAMLSYYYSTVMEQQVNGQLIEPLQIFPRACKPPGERNIHGLKVNTRAGPSQHSSPAVSDSLPSNSLKKSSAELKKILANGQMNEQDIRYRDTLGHGNGGTVYKAYHVPSGKILAVKVILLDITLELQKQIMSELEILYKCDSSYIIGFYGAFFVENRISICTEFMDGGSLDVYRKMPEHVLGRIAVAVVKGLTYLWSLKILHRDVKPSNMLVNTRGQVKLCDFGVSTQLVNSIAKTYVGTNAYMAPERISGEQYGIHSDVWSLGISFMELALGRFPYPQIQKNQGSLMPLQLLQCIVDEDSPVLPVGEFSEPFVHFITQCMRKQPKERPAPEELMGHPFIVQFNDGNAAVVSMWVCRALEERRSQQGPP
With B3, the binding result in test [4] was “binds”.
